Whole data set: some 33,000 sequences, median “E-score (-0.5 to 0.5)” near -0.0014, cut for the highest 2% near 0.25. This is one part of the list.
Biological target: T1, Cad1 (UniProt P24813)
T1 sequence: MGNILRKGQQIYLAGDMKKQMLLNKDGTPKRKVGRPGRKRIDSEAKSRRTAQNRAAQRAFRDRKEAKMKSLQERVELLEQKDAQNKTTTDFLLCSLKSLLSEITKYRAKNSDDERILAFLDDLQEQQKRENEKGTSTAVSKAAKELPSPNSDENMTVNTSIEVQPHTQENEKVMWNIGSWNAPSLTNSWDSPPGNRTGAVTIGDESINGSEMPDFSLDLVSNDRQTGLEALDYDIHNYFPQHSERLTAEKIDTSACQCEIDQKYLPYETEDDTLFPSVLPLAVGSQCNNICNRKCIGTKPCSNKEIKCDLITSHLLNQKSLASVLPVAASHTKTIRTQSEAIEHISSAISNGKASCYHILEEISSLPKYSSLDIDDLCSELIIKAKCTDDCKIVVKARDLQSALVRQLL
Assay: PBM E-score (8-mer binding enrichment) (E-score (-0.5 to 0.5)); higher = stronger / more preferred TF binding
Conditions: protein concentration: 100 nM; construct: GST-full length
In short: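 For each ungapped eight-base word taken together with its reverse complement, the Universal PBM Analysis Suite assigned an E-score. Binding data came from GST-tagged yeast transcription factors, applied at about 100-200 nM, on universal all-10-mer Agilent arrays made double-stranded by primer extension. Fluorescent anti-GST marked bound protein, and scans were normalised with masliner.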

| Sequence | PBM E-score |
| --- | --- |
| CAGGCAGA | -0.011 |
| CTAGCGGC | -0.184 |
| CCTTGCAC | 0.0638 |
| CTGAGCAA | 0.0749 |
| AGCCGAAG | -0.037 |
| GAACGTTC | -0.0713 |
| GAGCGTAC | -0.0811 |
| AGCGATTA | 0.0413 |
| ATTGCCAC | -0.0291 |
| CTGAAAAG | -0.0297 |
| ATCCATGA | -0.2 |
| CAGGACCA | -0.127 |
| CCGTGGCC | -0.193 |
| CGAGCACG | 0.03 |
| AGCGAGAT | 0.142 |
| CTTAAGGC | -0.0602 |
| ATCGCTTC | 0.0333 |
| GCAAACCA | 0.123 |
| CGTAGTTC | -0.214 |
| GGTTAAAC | 0.0202 |
| GCCGAGGC | 0.241 |
| ATTTGGGC | -0.0948 |
| CTGGAGCC | -0.193 |
| AATGGGGT | -0.1 |
| CCTACAGA | -0.188 |

| Sequence | PBM E-score |
| --- | --- |
| ATCCTAGG | -0.0518 |
| ACCCCGGT | -0.324 |
| AACCAAAC | -0.102 |
| AGCACACC | -0.0927 |
| ACCAAAAA | 0.278 |
| ATTTAGGC | 0.041 |
| CAGATCTC | 0.105 |
| AGGCTCCC | -0.299 |
| TCCAACCA | -0.0348 |
| ATCTAGGG | -0.0713 |
| ATCGTGCC | 0.102 |
| GACGTCTC | -0.0334 |
| GAGTGAAA | 0.0627 |
| ATCAGGAT | 0.163 |
| CTTCAAAG | -0.146 |
| CAGTCCAC | -0.28 |
| CCAGGTAG | -0.00184 |
| CGACGTAG | -0.197 |
| ATGTACAG | -0.088 |
| CAATTCGA | -0.0688 |
| GCTTATCC | 0.0881 |
| ATCCGGTA | -0.0922 |
| AGAATTTC | -0.0202 |
| AGAGATGC | -0.158 |
| ATGTCCAG | -0.011 |

| Sequence | PBM E-score |
| --- | --- |
| ATCCGGAT | 0.0462 |
| ACATCAAA | -0.0507 |
| CCAAAGGA | -0.093 |
| ACCGTACG | -0.127 |
| GGATCGAC | -0.0419 |
| ATTTGAAA | 0.251 |
| ACAACCCT | -0.16 |
| CTACCAAC | 0.0578 |
| GGACCGCA | -0.0231 |
| ACTCAACA | 0.127 |
| CGTGAGGA | -0.0764 |
| AGACGCAG | -0.0654 |
| CTTACCGC | 0.0543 |
| GCCAATGA | -0.202 |
| GACGCTGC | -0.00572 |
| AGTTACCC | -0.0809 |
| ACTAAAGA | -0.138 |
| CAGTTTTA | 0.0321 |
| ACCCTAGA | -0.0611 |
| CCCCGGGC | -0.309 |
| CTGTGGAC | -0.0582 |
| CAAGGCAC | -0.154 |
| GTAGTTCA | -0.00498 |
| AAGCACTG | 0.201 |
| TATAAGCA | 0.213 |

| Sequence | PBM E-score |
| --- | --- |
| GTACCTGA | 0.0805 |
| AGATATTG | 0.106 |
| AACTCCTA | -0.088 |
| CCGTTTGC | -0.085 |
| GAGGACTC | -0.255 |
| CCAGCTTA | 0.128 |
| AATATAAG | 0.297 |
| GGCAGAGA | -0.03 |
| CACCGGCG | -0.0503 |
| AACCTGAT | 0.0729 |
| AATACTGT | 0.183 |
| AACTGCAT | 0.119 |
| TGACGCAA | 0.00382 |
| CGGCCATC | -0.139 |
| ACGAATCA | 0.104 |
| AATATGCT | 0.208 |
| CAATCCTC | -0.0001 |
| AGTGGGGG | -0.374 |
| AGAAGTTG | -0.188 |
| ATGGAGCC | -0.245 |
| TAATGTGA | 0.236 |
| AGTAGGGA | -0.139 |
| CTACGCTC | -0.146 |
| ATCTCCTC | -0.121 |
| GCTCTGTA | -0.11 |

| Sequence | PBM E-score |
| --- | --- |
| AGTAAAAA | 0.0197 |
| AGCCTCAC | -0.137 |
| CCGAATGA | 0.114 |
| CGGCGCAC | 0.0919 |
| ACCACCGT | -0.17 |
| AATGAACC | -0.036 |
| AATATTCC | 0.297 |
| ACGGGGGG | -0.442 |
| AAATAATT | 0.295 |
| ATTTTGCG | 0.051 |
| GCGCCCCC | -0.361 |
| CCGTCGAG | 0.123 |
| AAGGGTTA | -0.0751 |
| GGTGCTTA | 0.117 |
| ACTCTATC | 0.0099 |
| ATACGTTC | -0.088 |
| CAAATCGA | 0.102 |
| ACAGTACG | 0.0255 |
| GATACGAA | 0.0432 |
| GACGCCGC | 0.0922 |
| ACCCGGCA | -0.0218 |
| CAACAAAG | 0.0781 |
| CCGCAATA | 0.233 |
| CGATGAGC | -0.0574 |
| AATAGTAC | 0.0507 |

| Sequence | PBM E-score |
| --- | --- |
| ATCGGGCG | -0.0127 |
| ATGCGCAT | 0.334 |
| GCGTGAAC | -0.0514 |
| AAGGTGGC | -0.106 |
| CTATGAAG | -0.00053 |
| CGTTTGAA | -0.0582 |
| CGTACGAG | -0.126 |
| GGAGCTCA | -0.128 |
| ATTGCTAG | 0.014 |
| ACAGGCTC | -0.127 |
| AGCGTGGA | 0.00412 |
| CGGTTCAA | -0.152 |
| GGGGTAAC | -0.162 |
| GCCAGGGA | -0.103 |
| ATCACAAA | 0.147 |
| AACATCGA | 0.153 |
| CACAGCCG | 0.0914 |
| CCGTTAAA | -0.135 |
| AGTCCTTA | -0.0318 |
| CTCAGAAC | 0.106 |
| ATACTGTC | 0.0829 |
| CTCCTGCA | -0.102 |
| AGGCGCGC | 0.161 |
| AGAAGTCA | 0.0277 |
| AGAGAACG | 0.083 |

Shown as labelled records: part of the list above
CGTTTGAA
  PBM E-score = -0.0582
CGTACGAG
  PBM E-score = -0.126
GGAGCTCA
  PBM E-score = -0.128
ATTGCTAG
  PBM E-score = 0.014

Looked up one by one from above (two):

| Sequence | PBM E-score |
| --- | --- |
| AACTCCTA | -0.088 |
| TATAAGCA | 0.213 |

(further entries)

| Sequence | PBM E-score |
| --- | --- |
| ATGTTTAA | 0.182 |
| CGACAGAA | 0.102 |
| ACAAAGGG | -0.0853 |
| CGGCTACG | -0.106 |
| GAGTCTAA | -0.166 |
| GCTTTCAA | 0.19 |
| CGTGCCAC | -0.091 |
| CATCCGAG | 0.0112 |
| GGCACACA | -0.127 |
| CGTGTTAA | 0.164 |
| AAGCTTAT | 0.175 |
| TAGTAATA | 0.371 |
| AGATGGGC | -0.0983 |
| ACTACCAT | -0.0757 |
| ACTAGGGA | -0.257 |
| CTCGGTAA | 2e-05 |
| AGATATCT | 0.0216 |
| AACAACAC | 0.155 |
| AAGAGACT | -0.228 |
| CCATTCGG | -0.0615 |
| AACATTAC | 0.109 |
| ACCGATAT | 0.0279 |

— the supplement of paper PMC3334620
